Test results taken from PubChem BioAssay AID186 (DTP/NCI, 2004).
Shown are survivors of the treated group in tumour-free mice. Survivors were counted at the toxicity check, usually on the fifth day, unless a day is given; later deaths do not show. Schedules are NCI's codes, taken here to give the interval after Q, in days (D) or hours (H), and the number of doses after X.

System: B6D2F1 mice, nontumored toxicity test, survival
Assay: NCI In Vivo Anticancer Drug Screen. Data for tumor model Nontumored Animals (Toxicity Test) in B6D2F1 (BDF1) mice

COC(OC(CO)C(O)S(=O)(=O)O)C(O)S(=O)(=O)O (stereo not given)
survivor count (dose: 12.5 mg/kg/injection, schedule: Q03HX008 (ip), vehicle: saline): 8 of 8 | survivor count (dose: 12.5 mg/kg/injection, schedule: Q03HX016 (ip), vehicle: saline): 8 of 8 | survivor count (dose: 12.5 mg/kg/injection, schedule: Q03HX024 (ip), vehicle: saline): 8 of 8 | survivor count (dose: 25.0 mg/kg/injection, schedule: Q03HX008 (ip), vehicle: saline): 8 of 8 | survivor count (dose: 25.0 mg/kg/injection, schedule: Q03HX016 (ip), vehicle: saline): 8 of 8 | survivor count (dose: 25.0 mg/kg/injection, schedule: Q03HX024 (ip), vehicle: saline): 8 of 8 | survivor count (dose: 50.0 mg/kg/injection, schedule: Q01DX009 (ip), vehicle: saline): 8 of 8 | survivor count (dose: 50.0 mg/kg/injection, schedule: Q01DX009 (sc), vehicle: saline): 8 of 8 | survivor count (dose: 50.0 mg/kg/injection, schedule: Q03HX008 (ip), vehicle: saline): 8 of 8 | survivor count (dose: 50.0 mg/kg/injection, schedule: Q03HX016 (ip), vehicle: saline): 8 of 8 | survivor count (dose: 50.0 mg/kg/injection, schedule: Q03HX024 (ip), vehicle: saline): 8 of 8 | survivor count (dose: 100.0 mg/kg/injection, schedule: Q01DX001 (ip), vehicle: saline): 8 of 8 | survivor count (dose: 100.0 mg/kg/injection, schedule: Q01DX009 (ip), vehicle: saline): 8 of 8 | survivor count (dose: 100.0 mg/kg/injection, schedule: Q01DX009 (oral), vehicle: saline): 8 of 8 | survivor count (dose: 100.0 mg/kg/injection, schedule: Q01DX009 (sc), vehicle: saline): 8 of 8 | survivor count (dose: 100.0 mg/kg/injection, schedule: Q03HX008 (ip), vehicle: saline): 7 of 8 | survivor count (dose: 100.0 mg/kg/injection, schedule: Q03HX016 (ip), vehicle: saline): 8 of 8 | survivor count (dose: 100.0 mg/kg/injection, schedule: Q03HX024 (ip), vehicle: saline): 7 of 8 | survivor count (dose: 100.0 mg/kg/injection, schedule: Q04DX003 (ip), vehicle: saline): 8 of 8 | survivor count (dose: 100.0 mg/kg/injection, schedule: Q08DX002 (ip), vehicle: saline): 8 of 8 | survivor count (dose: 200.0 mg/kg/injection, schedule: Q01DX001 (ip), vehicle: saline): 8 of 8 | survivor count (dose: 200.0 mg/kg/injection, schedule: Q01DX009 (ip), vehicle: saline): 8 of 8 | survivor count (dose: 200.0 mg/kg/injection, schedule: Q01DX009 (oral), vehicle: saline): 8 of 8 | survivor count (dose: 200.0 mg/kg/injection, schedule: Q01DX009 (sc), vehicle: saline): 8 of 8 | survivor count (dose: 200.0 mg/kg/injection, schedule: Q04DX003 (ip), vehicle: saline): 8 of 8 | survivor count (dose: 200.0 mg/kg/injection, schedule: Q08DX002 (ip), vehicle: saline): 8 of 8 | survivor count (dose: 400.0 mg/kg/injection, schedule: Q01DX001 (ip), vehicle: saline): 8 of 8 | survivor count (dose: 400.0 mg/kg/injection, schedule: Q01DX009 (ip), vehicle: saline): 7 of 8 | survivor count (dose: 400.0 mg/kg/injection, schedule: Q01DX009 (oral), vehicle: saline): 8 of 8 | survivor count (dose: 400.0 mg/kg/injection, schedule: Q01DX009 (sc), vehicle: saline): 8 of 8 | survivor count (dose: 400.0 mg/kg/injection, schedule: Q04DX003 (ip), vehicle: saline): 8 of 8 | survivor count (dose: 400.0 mg/kg/injection, schedule: Q08DX002 (ip), vehicle: saline): 8 of 8 | survivor count (dose: 800.0 mg/kg/injection, schedule: Q01DX001 (ip), vehicle: saline): 8 of 8 | survivor count (dose: 800.0 mg/kg/injection, schedule: Q01DX009 (oral), vehicle: saline): 7 of 8 | survivor count (dose: 800.0 mg/kg/injection, schedule: Q04DX003 (ip), vehicle: saline): 8 of 8 | survivor count (dose: 800.0 mg/kg/injection, schedule: Q08DX002 (ip), vehicle: saline): 8 of 8

OC(CBr)C(O)C(O)C(O)CBr (stereo not given)
survivor count (dose: 120.0 mg/kg/injection, schedule: Q01DX009 (ip), vehicle: distilled water + Tween-80): 5 of 5 | survivor count (dose: 200.0 mg/kg/injection, schedule: Q01DX009 (ip), vehicle: distilled water + Tween-80): 5 of 5 | survivor count (dose: 333.0 mg/kg/injection, schedule: Q01DX009 (ip), vehicle: distilled water + Tween-80): 5 of 5 | survivor count (dose: 556.0 mg/kg/injection, schedule: Q01DX009 (ip), vehicle: distilled water + Tween-80): 3 of 4
